Publication PMC7819943, “Rice protein-binding microarrays: a tool to detect cis-acting elements near promoter regions in rice”
Some of the results follow.

These sequences were tested against T1, OsSMF1 (Oryza sativa, UniProt Q6ZLB0 1-436) (assay: protein-binding microarray (RPBM); PBS, 2% BSA, 51.3 ng/ul salmon testes DNA, 50 uM zinc acetate, 200 nM TF, 25 C, 1 h; high values mean tight binding). Details: protein: recombinant; tags: N-terminal polyhistidine and DsRed monomer fusion (pET32a); chain copies: 2; label: CyDye5-dUTP incorporated in the synthesized complementary strand; 3' TTTTT single-stranded linker to array surface; dsDNA, one strand shown.
T1 sequence: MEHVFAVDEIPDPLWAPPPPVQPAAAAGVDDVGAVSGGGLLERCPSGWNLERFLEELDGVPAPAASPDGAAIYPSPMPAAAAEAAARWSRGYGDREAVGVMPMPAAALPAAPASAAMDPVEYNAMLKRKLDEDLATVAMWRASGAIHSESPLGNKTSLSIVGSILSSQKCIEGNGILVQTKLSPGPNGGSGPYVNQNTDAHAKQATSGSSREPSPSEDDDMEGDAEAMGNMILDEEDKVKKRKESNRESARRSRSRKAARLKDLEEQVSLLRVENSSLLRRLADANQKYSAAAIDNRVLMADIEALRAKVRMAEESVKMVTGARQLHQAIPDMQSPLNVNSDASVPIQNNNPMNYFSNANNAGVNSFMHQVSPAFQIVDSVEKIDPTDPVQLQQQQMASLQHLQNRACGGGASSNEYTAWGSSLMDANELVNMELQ
Outline: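 Per-feature fluorescence intensity (arbitrary units), read on an Axon 4000B scanner, is the binding signal. Transcription factors carrying an N-terminal polyhistidine tag and DsRed fusion were expressed in E. coli BL21-CodonPlus and purified on Ni–NTA. A custom Agilent array, made double-stranded by primer extension with Cy5-dUTP and blocked with 2% BSA, was incubated with 200 nM protein in PBS, 2% BSA, salmon testes DNA and 50 µM zinc acetate at 25 °C for 1 h and then washed.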

Sequence | binding signal
TCAATCCAGTCCATTAGGAACTCCACATATTTTGGCGCTGCGGAGTCACCTAGTGCAG | 3960 fluorescence intensity (a.u.)
CAAGTCACTTGGTGACATATGCAAACAGCCATGGATTGTACGGAGTCACCTAGTGCAG | 4880 fluorescence intensity (a.u.)
GCACCGTAAAGCTGCCCTGCTGCTGGCTGCACACGTAATTCGGAGTCACCTAGTGCAG | 5600 fluorescence intensity (a.u.)
TATGCTTGTCTGATCTATGCAATGACGTACTAGTACGCAACGGAGTCACCTAGTGCAG | 3720 fluorescence intensity (a.u.)
GCCGTGGGAATGGCTGAGGATTAGTGCGCCACGTCAGCAACGGAGTCACCTAGTGCAG | 37300 fluorescence intensity (a.u.)
GAGCGCTTTCACCAGCAGCCAGGCGAGCTCGAGCAGCACCCGGAGTCACCTAGTGCAG | 21200 fluorescence intensity (a.u.)
TGACAATCTGAAGGCAACCTCTTCATATCTTCTTTCCCACCGGAGTCACCTAGTGCAG | 3610 fluorescence intensity (a.u.)
CCACGATCACATTCACCTCCCATCCCACGACGTTGCTCTCCGGAGTCACCTAGTGCAG | 3880 fluorescence intensity (a.u.)
TACATACCCGTCTCGCGATTAGCTTATGTGGCAAGGGCATCGGAGTCACCTAGTGCAG | 6980 fluorescence intensity (a.u.)
CCGCGCAATCTGCGTGGGCCACCACCATGCTAGTTACTACCGGAGTCACCTAGTGCAG | 3790 fluorescence intensity (a.u.)
TTGAATAGTGGTCCAAAATGAAACACCGGCAATAAAAGGTCGGAGTCACCTAGTGCAG | 32600 fluorescence intensity (a.u.)
CTGACGTGACGTCCACGTGACAACCTGGTCATTAAATAAACGGAGTCACCTAGTGCAG | 6140 fluorescence intensity (a.u.)
GACGTAATTAGCGCAAACTGTTAGGCCCAAATGCGTCATTCGGAGTCACCTAGTGCAG | 3870 fluorescence intensity (a.u.)
TTTCCCTGATAATAATAACCGACACGCGTAAGCTCTTGAACGGAGTCACCTAGTGCAG | 3360 fluorescence intensity (a.u.)
CCCTCCTTGACAAGGTCAGTGTCCACGTCCCTCGCCGCCGCGGAGTCACCTAGTGCAG | 11400 fluorescence intensity (a.u.)
ACGGCCCAGTCATCGGTCCGTTGGCCACGCGATTTCTCAGCGGAGTCACCTAGTGCAG | 4420 fluorescence intensity (a.u.)
GAGTACTCGTACTCCACGGTAGTACTACTGCTCCGTCCGTCGGAGTCACCTAGTGCAG | 3500 fluorescence intensity (a.u.)
CGCCACCCTGGTGCCACGTGTGTACCACATAGGAGCAAAACGGAGTCACCTAGTGCAG | 14400 fluorescence intensity (a.u.)
GTGGAATATTTCTGATCATGGTTTGGGAATAAACGTTCTGCGGAGTCACCTAGTGCAG | 3310 fluorescence intensity (a.u.)
GGAGCGGGGCGGCGGCGGGCGGAGTGGGCCGATGATGAGGCGGAGTCACCTAGTGCAG | 3230 fluorescence intensity (a.u.)
AATAATGCTGCCACGTCAATCTTATTGGCATGAAAATAAGCGGAGTCACCTAGTGCAG | 8910 fluorescence intensity (a.u.)

Sequence | binding signal
ACACGACGCGTACGTACGTCCAGTTCTTGGCTAAGCTTCACGGAGTCACCTAGTGCAG | 3390 fluorescence intensity (a.u.)
ACGCCGCCGCCGCCACCGCCACCGTCGCCGCCGCGCGTCCCGGAGTCACCTAGTGCAG | 4080 fluorescence intensity (a.u.)
GAAAACGTGTCACGAATCGTCACGTATAAATTGCACTGTGCGGAGTCACCTAGTGCAG | 3300 fluorescence intensity (a.u.)
CCAAATTGTTGTTGCCACATCCTTGATCGTATGCTTCTTACGGAGTCACCTAGTGCAG | 3420 fluorescence intensity (a.u.)
AGCGTGTGTATCGGGTTCAGTTGGAGACGTGGCGTCGTGCCGGAGTCACCTAGTGCAG | 6850 fluorescence intensity (a.u.)
ACTAGCAGCCCACACACTGCCACTGCATAGGTTACGAGTTCGGAGTCACCTAGTGCAG | 3620 fluorescence intensity (a.u.)
GGACGTTCTCGTATTATTATATCCAGACCTCTATAGTAGTCGGAGTCACCTAGTGCAG | 28100 fluorescence intensity (a.u.)
ATATCAAACACGGTGGCAGGATCAAAGTCAGCTCTCTCTTCGGAGTCACCTAGTGCAG | 3660 fluorescence intensity (a.u.)
ACGATAAGCCGGCGACACAAGCATCCACATCATAGAAATCCGGAGTCACCTAGTGCAG | 6040 fluorescence intensity (a.u.)
TGACAGAGATGGCGGTTCGGTGAGGTGTAGCACGCGTGTGCGGAGTCACCTAGTGCAG | 3710 fluorescence intensity (a.u.)
CTCTTACCCATTAGGTACGTGGGTATGGGTATGTTCTTTACGGAGTCACCTAGTGCAG | 3610 fluorescence intensity (a.u.)
CCATGTTAGTAGATAGCTTTGCTCTCTCTCTTCATTTAATCGGAGTCACCTAGTGCAG | 5650 fluorescence intensity (a.u.)
TGGAACCCGCCCTCGTACATCTGGTGGATCTCGTACACGTCGGAGTCACCTAGTGCAG | 4200 fluorescence intensity (a.u.)
CACTGATTTTAGGAGTTGAGGGACGCGTCATACAGTCATACGGAGTCACCTAGTGCAG | 6770 fluorescence intensity (a.u.)
GCAGCGCCATGAAAGCGCATGGCATGCATGCACTGCACTGCGGAGTCACCTAGTGCAG | 3520 fluorescence intensity (a.u.)
ACGTGCAGGGGTTCTACGTCGTCACCTACGGCCTCGGCATCGGAGTCACCTAGTGCAG | 3870 fluorescence intensity (a.u.)
TCCCTCTGACATGGTTCATTGATAGGTGGACTCTCTATTCCGGAGTCACCTAGTGCAG | 3240 fluorescence intensity (a.u.)
GACCTCGTCTTCCTCCTCCACCTCCTCGCGACCTCGCATTCGGAGTCACCTAGTGCAG | 3360 fluorescence intensity (a.u.)
CTCTATATATACGTGTGTACCCTGCAGGACAAGCCAGTGTCGGAGTCACCTAGTGCAG | 4480 fluorescence intensity (a.u.)
ATCCAATGGAGCTACCTAAGCTACCACGTATACATGTACCCGGAGTCACCTAGTGCAG | 6560 fluorescence intensity (a.u.)
ACGGCCTCATGCCATCGCCTGACACGTACGCCCGATCTCCCGGAGTCACCTAGTGCAG | 9730 fluorescence intensity (a.u.)

Reprinted from the results shown for reference:
Sequence | binding signal
ATATCAAACACGGTGGCAGGATCAAAGTCAGCTCTCTCTTCGGAGTCACCTAGTGCAG | 3660 fluorescence intensity (a.u.)
ACGATAAGCCGGCGACACAAGCATCCACATCATAGAAATCCGGAGTCACCTAGTGCAG | 6040 fluorescence intensity (a.u.)
TGACAGAGATGGCGGTTCGGTGAGGTGTAGCACGCGTGTGCGGAGTCACCTAGTGCAG | 3710 fluorescence intensity (a.u.)
CTCTTACCCATTAGGTACGTGGGTATGGGTATGTTCTTTACGGAGTCACCTAGTGCAG | 3610 fluorescence intensity (a.u.)
CCATGTTAGTAGATAGCTTTGCTCTCTCTCTTCATTTAATCGGAGTCACCTAGTGCAG | 5650 fluorescence intensity (a.u.)
TGGAACCCGCCCTCGTACATCTGGTGGATCTCGTACACGTCGGAGTCACCTAGTGCAG | 4200 fluorescence intensity (a.u.)
CACTGATTTTAGGAGTTGAGGGACGCGTCATACAGTCATACGGAGTCACCTAGTGCAG | 6770 fluorescence intensity (a.u.)
GCAGCGCCATGAAAGCGCATGGCATGCATGCACTGCACTGCGGAGTCACCTAGTGCAG | 3520 fluorescence intensity (a.u.)
ACGTGCAGGGGTTCTACGTCGTCACCTACGGCCTCGGCATCGGAGTCACCTAGTGCAG | 3870 fluorescence intensity (a.u.)
TCCCTCTGACATGGTTCATTGATAGGTGGACTCTCTATTCCGGAGTCACCTAGTGCAG | 3240 fluorescence intensity (a.u.)
